Laboratory results as given in doi:10.1101/843821.
No constants are given. Whether binding was seen depends on the method and setting. Some binding calls cover weakened binding; strength is not graded here.

Target: T1, Mmp-RpoD (Methanococcus maripaludis (endogenous in strain S2)) (UniProt Q6LXM8)
T1 sequence: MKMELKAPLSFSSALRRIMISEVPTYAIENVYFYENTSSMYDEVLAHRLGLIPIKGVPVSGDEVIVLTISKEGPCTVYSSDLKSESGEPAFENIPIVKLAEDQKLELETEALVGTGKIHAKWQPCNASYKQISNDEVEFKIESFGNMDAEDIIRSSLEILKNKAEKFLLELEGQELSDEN
Assay: SEC

binding: binds
B1: Mmp-aCPSF1 (enzyme, UniProt Q6LZD5 1-635)
chain: MSAEDILNEIKAAVINKAPGNAVITDVEFEGSEVVIYAKNPELFSNNLIKEFARDFRKRLAIRPDPSVLVEPDIAKDKILKIVPEDAEITNCIFDANTGEVIIESKKPGLVIGKEGSTLEDIKKAIQWAPKPVRTPPIPSDTIKAIRATMYRERADVKDILRRIGRRIHRDVRLRDDSWVRTSFLGGSREVGRTCLYHQTPESRILVDCGINIAVEDEKAFPHFDAPEFSIEEIDAVVVTHAHLDHCGFIPGLFRYGYDGPVYCTKPTRDLMTLLQKDYVDITEKEGKNVPYSSKDIKNCIKHTIPLDYGVTTDIAPAIKLTMHNAGHILGSAIAHCHVGDGLYNVAYTGDIKFEASRLLEPAVCQFPRLETLIIESTYGGYDDVLPERDETEKEFLRVIAETIARKGKAIIPVFGIGRAQELMLVLEEGYNQGIFNAPVYLDGMIWEATAIHTAYPEYLSKNMRNRIFHEGDNPFLSEVFKKVKNTNDRRNIMDSDEPGIILTTSGMLSGGPSVEYFKNLADDEKNSIVFVGYQSEGTLGRKIQKGFKEIPLMGKNGRSKAVKVNLSVHTLEGFSGHSDRKQLIKYLRKLKPIPDRILTVHGEVSKCIDLASTAYKLFKKETKAPMNLDSIRLR
